Consider one substance from paper PMC6598649.

The test deals with T1, TZSV NSs (co-IP construct) (Tomato zonate spot orthotospovirus) (UniProt B1NK03).
T1 sequence: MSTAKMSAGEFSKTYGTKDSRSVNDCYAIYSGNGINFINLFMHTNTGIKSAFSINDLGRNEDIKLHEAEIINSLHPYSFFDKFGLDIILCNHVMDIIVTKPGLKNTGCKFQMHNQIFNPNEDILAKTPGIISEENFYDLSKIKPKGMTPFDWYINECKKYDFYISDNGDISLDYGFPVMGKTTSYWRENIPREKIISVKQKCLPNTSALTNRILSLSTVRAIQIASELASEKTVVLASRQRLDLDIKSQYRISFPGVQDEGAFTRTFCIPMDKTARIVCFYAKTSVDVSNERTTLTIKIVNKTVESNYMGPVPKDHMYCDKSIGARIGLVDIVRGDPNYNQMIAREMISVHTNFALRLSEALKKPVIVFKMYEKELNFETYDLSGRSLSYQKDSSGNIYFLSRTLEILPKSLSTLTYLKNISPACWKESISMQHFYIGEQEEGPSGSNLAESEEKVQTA
The test can be described thus: co-IP; protein extracts of agroinfiltrated N. benthamiana leaves, 25 μL GFP-trap beads, 3 h at 4°C; 50 mM Tris-HCl pH 7.5, 150 mM NaCl, 2 mM MgCl2, 0.5 mM EDTA, 0.1% Triton, 0.5% NP-40, 10% glycerol; immunoblot with Anti-GFP and Anti-Myc.

Results are given in words; binding and its absence hold for the method and conditions named. Binding seen in cells or lysates may run through a third protein. A result given as binding can be weak or reduced; the word gives no strength.

Turning to CaMYC2-Myc (Capsicum annuum (pepper)), the binding result is “binds”.
